Laboratory results as given in PMC12120717.
These are yes or no findings as the source states them, for the method shown. In cells and extracts the contact can be indirect. Some entries that bind do so weakly or less than the wild type.

Protein sequences, listed by entry. Tags and fused reporters are not part of them.
UniProt P52952: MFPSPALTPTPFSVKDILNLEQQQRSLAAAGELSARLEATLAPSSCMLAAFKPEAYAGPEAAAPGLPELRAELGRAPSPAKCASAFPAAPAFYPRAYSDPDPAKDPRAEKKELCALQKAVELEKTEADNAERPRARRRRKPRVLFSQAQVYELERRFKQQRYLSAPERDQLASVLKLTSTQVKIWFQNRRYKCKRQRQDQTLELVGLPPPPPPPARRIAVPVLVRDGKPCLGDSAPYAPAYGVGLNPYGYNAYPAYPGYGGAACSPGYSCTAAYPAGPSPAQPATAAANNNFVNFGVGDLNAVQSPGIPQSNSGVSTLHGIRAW

Target: T1, ubiquitin‐like protein with plant homeodomain and ring finger domains 1 (UHRF1) (human) (UniProt Q96T88)
T1 sequence: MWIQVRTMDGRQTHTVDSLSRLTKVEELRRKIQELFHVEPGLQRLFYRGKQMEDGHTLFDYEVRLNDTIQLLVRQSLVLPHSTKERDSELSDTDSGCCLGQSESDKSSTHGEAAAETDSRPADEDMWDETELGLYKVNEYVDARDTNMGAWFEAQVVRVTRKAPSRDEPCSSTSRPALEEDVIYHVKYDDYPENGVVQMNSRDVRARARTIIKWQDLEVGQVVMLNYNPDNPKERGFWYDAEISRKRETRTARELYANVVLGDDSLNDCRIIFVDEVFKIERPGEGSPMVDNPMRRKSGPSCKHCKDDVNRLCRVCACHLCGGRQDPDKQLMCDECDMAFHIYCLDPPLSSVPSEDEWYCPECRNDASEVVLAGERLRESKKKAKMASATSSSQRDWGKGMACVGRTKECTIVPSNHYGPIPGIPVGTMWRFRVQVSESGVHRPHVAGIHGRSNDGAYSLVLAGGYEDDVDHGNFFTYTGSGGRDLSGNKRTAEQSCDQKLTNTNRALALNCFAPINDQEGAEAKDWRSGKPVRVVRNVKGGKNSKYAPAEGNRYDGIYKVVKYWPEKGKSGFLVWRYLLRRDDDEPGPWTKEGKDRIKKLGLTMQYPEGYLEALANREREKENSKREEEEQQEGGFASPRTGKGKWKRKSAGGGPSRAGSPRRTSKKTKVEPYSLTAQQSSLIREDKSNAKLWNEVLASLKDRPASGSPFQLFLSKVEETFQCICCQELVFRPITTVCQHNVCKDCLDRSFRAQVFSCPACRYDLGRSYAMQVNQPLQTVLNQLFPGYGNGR
Assay: co-IP; immunoprecipitation by a previously described protocol (ref. 47); cells, precipitating antibody and bait not stated; for DNMT1/DNMT3A also after UHRF1 knockdown

- binding: binds
Substance: NKX2‐5 (from UniProt P52952 1-324)
